Laboratory results reported in the supplement of paper PMC10849652.
The other results are listed elsewhere or left out.

Protein sequences, listed by entry. Tags and fused reporters are not part of them. Lines headed by an entry give the natural chain unless they say otherwise; changes in a name come on top.
UniProt Q9H0C8: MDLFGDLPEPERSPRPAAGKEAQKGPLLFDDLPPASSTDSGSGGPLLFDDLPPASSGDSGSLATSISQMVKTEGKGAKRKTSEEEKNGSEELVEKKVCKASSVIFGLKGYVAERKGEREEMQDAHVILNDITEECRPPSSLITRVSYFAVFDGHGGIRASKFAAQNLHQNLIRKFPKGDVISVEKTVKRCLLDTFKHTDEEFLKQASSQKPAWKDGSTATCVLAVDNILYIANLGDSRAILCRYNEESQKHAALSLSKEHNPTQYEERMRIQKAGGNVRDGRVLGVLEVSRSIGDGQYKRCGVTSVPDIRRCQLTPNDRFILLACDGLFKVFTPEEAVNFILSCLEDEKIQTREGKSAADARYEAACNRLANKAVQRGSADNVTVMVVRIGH
UniProt Q12905: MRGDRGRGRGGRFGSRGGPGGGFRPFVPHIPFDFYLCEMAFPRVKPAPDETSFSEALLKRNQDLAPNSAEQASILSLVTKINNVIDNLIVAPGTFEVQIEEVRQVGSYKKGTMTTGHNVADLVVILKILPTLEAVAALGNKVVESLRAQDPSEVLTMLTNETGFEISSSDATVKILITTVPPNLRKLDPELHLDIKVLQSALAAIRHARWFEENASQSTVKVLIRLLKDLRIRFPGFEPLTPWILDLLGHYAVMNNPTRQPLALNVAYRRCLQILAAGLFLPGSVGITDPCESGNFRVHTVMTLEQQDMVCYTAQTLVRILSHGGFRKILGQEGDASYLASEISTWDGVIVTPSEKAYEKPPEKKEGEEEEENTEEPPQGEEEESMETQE
UniProt P19823: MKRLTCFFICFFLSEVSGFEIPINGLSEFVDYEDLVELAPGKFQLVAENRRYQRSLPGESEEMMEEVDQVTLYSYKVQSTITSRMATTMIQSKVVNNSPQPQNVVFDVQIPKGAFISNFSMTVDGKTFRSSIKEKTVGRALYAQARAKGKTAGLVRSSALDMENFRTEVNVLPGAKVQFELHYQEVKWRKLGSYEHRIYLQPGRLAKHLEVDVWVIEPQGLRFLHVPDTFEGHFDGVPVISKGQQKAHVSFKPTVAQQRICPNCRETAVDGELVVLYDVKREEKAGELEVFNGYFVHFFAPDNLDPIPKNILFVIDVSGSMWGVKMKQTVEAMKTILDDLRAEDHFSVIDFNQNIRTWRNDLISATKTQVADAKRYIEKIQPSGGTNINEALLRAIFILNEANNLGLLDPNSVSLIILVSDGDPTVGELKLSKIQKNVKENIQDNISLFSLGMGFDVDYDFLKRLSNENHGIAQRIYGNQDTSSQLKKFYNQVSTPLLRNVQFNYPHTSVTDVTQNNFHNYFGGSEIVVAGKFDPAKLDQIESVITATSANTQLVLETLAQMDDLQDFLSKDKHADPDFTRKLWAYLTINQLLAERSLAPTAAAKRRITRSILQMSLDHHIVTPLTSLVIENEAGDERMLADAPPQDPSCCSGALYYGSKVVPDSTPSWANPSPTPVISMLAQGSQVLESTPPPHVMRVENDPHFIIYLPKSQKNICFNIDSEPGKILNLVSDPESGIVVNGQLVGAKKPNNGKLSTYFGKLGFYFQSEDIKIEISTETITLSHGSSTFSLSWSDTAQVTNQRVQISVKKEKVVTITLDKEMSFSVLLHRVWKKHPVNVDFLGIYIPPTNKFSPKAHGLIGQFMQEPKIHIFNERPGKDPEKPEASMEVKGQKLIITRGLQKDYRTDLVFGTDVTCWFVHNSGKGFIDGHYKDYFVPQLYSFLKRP
UniProt Q9H1K1: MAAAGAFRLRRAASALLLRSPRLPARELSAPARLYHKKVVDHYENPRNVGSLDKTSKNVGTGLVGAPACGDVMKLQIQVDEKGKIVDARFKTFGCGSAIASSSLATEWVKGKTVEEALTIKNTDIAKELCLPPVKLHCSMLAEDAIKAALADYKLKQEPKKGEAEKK
UniProt Q01628, whole entry, looked up: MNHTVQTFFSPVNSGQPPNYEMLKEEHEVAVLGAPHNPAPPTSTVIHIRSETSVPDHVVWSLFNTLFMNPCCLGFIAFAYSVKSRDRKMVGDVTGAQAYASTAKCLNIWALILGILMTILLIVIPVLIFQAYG
UniProt Q9ULR0: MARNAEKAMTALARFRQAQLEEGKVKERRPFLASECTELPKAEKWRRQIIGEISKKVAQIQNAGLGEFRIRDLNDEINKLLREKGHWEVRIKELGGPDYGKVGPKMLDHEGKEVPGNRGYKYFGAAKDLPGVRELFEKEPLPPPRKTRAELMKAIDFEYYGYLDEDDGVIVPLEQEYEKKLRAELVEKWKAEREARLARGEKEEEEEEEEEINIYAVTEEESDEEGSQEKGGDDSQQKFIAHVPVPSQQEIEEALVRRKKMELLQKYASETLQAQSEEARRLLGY
UniProt O14920: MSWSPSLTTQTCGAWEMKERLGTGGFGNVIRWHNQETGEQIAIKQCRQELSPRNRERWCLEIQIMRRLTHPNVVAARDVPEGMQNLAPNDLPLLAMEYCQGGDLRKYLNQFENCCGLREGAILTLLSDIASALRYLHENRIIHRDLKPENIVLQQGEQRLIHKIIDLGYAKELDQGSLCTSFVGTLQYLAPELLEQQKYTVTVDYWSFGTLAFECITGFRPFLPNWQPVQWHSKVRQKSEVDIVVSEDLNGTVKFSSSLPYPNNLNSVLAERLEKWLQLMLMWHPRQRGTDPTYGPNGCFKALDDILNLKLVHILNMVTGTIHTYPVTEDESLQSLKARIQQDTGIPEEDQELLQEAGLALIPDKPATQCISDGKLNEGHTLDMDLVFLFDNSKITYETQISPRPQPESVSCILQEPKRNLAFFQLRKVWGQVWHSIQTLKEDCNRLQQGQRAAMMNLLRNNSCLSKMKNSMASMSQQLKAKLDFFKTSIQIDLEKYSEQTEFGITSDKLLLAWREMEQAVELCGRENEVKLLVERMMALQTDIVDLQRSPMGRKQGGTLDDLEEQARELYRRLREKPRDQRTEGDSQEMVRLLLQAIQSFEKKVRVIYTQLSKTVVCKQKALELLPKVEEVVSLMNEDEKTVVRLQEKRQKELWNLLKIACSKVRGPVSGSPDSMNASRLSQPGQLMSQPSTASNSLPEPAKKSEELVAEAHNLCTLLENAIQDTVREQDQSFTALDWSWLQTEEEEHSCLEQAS
UniProt Q68E01, whole entry, looked up: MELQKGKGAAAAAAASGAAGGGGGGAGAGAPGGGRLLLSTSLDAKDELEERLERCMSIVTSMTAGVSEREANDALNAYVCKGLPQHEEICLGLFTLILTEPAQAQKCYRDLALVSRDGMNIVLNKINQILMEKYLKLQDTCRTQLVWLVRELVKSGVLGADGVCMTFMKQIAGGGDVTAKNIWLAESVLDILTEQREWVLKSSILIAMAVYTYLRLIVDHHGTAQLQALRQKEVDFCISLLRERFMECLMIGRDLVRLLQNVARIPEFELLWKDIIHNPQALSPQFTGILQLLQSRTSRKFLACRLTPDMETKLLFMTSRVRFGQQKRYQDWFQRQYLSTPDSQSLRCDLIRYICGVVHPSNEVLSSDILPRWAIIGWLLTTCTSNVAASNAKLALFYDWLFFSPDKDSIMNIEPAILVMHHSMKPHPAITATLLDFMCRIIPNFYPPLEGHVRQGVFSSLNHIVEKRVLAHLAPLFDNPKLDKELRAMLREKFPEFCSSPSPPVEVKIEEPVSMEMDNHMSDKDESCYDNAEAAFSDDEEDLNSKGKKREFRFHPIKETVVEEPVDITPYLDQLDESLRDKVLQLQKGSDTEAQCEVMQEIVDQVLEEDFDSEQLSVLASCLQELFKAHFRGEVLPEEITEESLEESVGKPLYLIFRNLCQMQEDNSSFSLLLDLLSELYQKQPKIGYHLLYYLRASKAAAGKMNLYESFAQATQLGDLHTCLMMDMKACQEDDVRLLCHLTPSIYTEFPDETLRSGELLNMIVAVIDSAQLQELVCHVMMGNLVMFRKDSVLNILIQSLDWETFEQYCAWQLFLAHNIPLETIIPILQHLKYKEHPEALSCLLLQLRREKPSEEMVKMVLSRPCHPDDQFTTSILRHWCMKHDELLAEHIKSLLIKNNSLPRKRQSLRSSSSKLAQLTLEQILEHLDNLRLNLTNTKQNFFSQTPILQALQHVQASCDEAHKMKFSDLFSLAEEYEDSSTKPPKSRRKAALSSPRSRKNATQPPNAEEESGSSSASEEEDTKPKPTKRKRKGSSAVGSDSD
UniProt O00458: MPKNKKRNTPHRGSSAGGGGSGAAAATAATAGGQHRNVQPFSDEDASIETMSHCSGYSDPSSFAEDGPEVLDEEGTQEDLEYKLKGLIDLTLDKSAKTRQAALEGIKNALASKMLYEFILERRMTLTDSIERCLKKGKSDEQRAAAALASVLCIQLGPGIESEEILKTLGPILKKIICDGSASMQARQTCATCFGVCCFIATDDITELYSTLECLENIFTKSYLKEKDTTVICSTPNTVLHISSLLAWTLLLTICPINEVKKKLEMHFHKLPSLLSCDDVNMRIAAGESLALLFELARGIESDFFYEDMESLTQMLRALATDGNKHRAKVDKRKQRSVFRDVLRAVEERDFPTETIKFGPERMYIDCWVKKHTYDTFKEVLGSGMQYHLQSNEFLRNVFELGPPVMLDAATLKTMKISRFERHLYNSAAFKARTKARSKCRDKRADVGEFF
UniProt Q9Y5U9: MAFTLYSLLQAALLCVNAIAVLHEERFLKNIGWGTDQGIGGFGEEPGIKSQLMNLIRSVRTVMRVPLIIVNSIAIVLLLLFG
UniProt O95373, whole entry, looked up: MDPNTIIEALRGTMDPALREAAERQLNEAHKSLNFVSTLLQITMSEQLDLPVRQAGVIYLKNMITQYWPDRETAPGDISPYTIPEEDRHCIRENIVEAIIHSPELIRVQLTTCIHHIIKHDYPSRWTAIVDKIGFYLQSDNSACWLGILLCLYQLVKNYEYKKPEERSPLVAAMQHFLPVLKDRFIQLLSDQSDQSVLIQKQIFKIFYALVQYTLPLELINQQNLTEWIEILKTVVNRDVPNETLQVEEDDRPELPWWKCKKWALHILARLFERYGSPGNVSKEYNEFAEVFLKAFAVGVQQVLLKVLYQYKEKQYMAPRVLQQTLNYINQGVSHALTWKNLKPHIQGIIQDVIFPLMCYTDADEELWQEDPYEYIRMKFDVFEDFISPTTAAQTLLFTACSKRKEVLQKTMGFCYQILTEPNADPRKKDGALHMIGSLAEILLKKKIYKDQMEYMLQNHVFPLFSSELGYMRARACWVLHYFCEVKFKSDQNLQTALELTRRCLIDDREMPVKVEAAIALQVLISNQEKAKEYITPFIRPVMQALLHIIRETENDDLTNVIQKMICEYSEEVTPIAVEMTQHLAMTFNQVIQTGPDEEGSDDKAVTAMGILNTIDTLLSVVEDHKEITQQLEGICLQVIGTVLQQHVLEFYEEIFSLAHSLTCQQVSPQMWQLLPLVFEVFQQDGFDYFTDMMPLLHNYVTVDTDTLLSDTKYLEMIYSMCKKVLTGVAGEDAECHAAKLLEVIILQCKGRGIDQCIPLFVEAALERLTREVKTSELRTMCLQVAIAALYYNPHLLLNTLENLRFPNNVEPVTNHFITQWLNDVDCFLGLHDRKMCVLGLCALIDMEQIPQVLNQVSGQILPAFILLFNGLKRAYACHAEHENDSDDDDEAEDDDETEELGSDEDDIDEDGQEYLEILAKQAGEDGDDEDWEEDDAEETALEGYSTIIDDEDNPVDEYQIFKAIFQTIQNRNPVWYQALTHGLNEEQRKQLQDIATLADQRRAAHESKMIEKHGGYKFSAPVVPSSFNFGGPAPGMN
UniProt Q9Y287, whole entry, looked up: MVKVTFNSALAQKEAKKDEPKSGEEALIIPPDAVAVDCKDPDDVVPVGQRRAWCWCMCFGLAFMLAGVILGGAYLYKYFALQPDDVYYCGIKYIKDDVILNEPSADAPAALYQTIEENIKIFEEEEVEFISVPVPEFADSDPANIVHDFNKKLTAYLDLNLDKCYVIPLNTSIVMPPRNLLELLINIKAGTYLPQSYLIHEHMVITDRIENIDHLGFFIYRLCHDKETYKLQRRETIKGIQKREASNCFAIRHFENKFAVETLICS
UniProt Q7Z5L9: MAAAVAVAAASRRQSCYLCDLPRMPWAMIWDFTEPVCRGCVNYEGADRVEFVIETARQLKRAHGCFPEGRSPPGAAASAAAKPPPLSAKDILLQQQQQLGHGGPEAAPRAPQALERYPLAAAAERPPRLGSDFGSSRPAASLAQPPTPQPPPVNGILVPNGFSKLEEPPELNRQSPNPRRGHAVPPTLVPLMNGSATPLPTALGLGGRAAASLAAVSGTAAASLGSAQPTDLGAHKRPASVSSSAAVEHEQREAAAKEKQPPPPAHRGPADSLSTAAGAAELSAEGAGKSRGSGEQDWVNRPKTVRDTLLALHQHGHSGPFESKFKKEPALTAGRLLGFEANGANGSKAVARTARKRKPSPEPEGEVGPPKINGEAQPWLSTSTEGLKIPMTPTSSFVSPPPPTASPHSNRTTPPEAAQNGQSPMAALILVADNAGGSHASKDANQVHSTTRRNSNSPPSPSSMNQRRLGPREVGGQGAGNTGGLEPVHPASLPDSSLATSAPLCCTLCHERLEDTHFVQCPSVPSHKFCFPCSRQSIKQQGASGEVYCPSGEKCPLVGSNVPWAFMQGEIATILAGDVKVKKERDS

The targets below were run with CCCS(=O)(=O)Nc1ccc(F)c(C(=O)c2c[nH]c3ncc(Cl)cc23)c1F (assay: log2 fold change, soluble protein after heating vs DMSO (PISA); higher = thermal stabilisation; K562 cells, 10 uM, 30 min; active = over 0.2 and 3.5 SD of the protein, either way, in both replicates (recomputed)).
How it was run: (§1)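 Soluble protein was defined as the supernatant after 21,000xg for 90 min. It came from K562 cells at 2×10^6 cells/mL given 10 μM compound for 30 min, heated in aliquots for 3 min across 48°C-58°C, pooled, and extracted in PBS with 0.5% NP-40 at 4°C, and was quantified by TMTpro 16plex LC-MS/MS with equalised channel sums. Thermal stability against control samples, from duplicates, is reported as log2 fold change.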

log2 fold change, inactive:
ILKAP (UniProt Q9H0C8) 0.082
ILK (UniProt Q13418) -0.005
IDH3B (UniProt O43837) 0.073
IL27RA (UniProt Q6UWB1) -0.091
ILF2 (UniProt Q12905) -0.042
ILVBL (UniProt A1L0T0) 0.049
ITPKA (UniProt P23677) -0.099
ITIH2 (UniProt P19823) -0.091
INPP5B (UniProt P32019) -0.004
ISCU (UniProt Q9H1K1) -0.066
IFITM3 (UniProt Q01628) 0.2
INTS14 (UniProt Q96SY0) 0.103
IRF3 (UniProt Q14653) 0.098
INTS5 (UniProt Q6P9B9) 0.074
ISY1 isoform 1 (UniProt Q9ULR0) -0.069
IKBKB (UniProt O14920) 0.047
INTS3 (UniProt Q68E01) 0.058
IRAK4 (UniProt Q9NWZ3) 0.068
IFRD1 (UniProt O00458) 0.058
ISYNA1 (UniProt Q9NPH2) -0.016
IER3IP1 (UniProt Q9Y5U9) 0.134
IPO7 (UniProt O95373) 0.081
INPPL1 (UniProt O15357) 0.021
ITFG2 (UniProt Q969R8) 0.029
ILRUN (UniProt Q9H6K1) 0.135
IMMT isoform 2 (UniProt Q16891) 0.018
ISCA2 (UniProt Q86U28) -0.008
ITM2B (UniProt Q9Y287) -0.016
IRF2BP2 (UniProt Q7Z5L9) 0.006
INTS2 (UniProt Q9H0H0) -0.137

These targets were tested with CCCc1cc(C)[nH]c(=O)c1CNC(=O)c1cc(-c2ccnc(N3CCN(C)CC3)c2)cc2c1cnn2C(C)C in the same assay as above.
How it was run: as §1

log2 fold change, inactive:
ILKAP (UniProt Q9H0C8) 0.063
ILK (UniProt Q13418) -0.031
IDH3B (UniProt O43837) -0.086
IL27RA (UniProt Q6UWB1) -0.008
ILF2 (UniProt Q12905) 0.032
ILVBL (UniProt A1L0T0) 0.004
ITPKA (UniProt P23677) 0.079
ITIH2 (UniProt P19823) -0.25
INPP5B (UniProt P32019) 0.062
ISCU (UniProt Q9H1K1) -0.069
IFITM3 (UniProt Q01628) 0.218
INTS14 (UniProt Q96SY0) 0.056
IRF3 (UniProt Q14653) 0.011
INTS5 (UniProt Q6P9B9) 0.122
ISY1 isoform 1 (UniProt Q9ULR0) -0.038
IKBKB (UniProt O14920) 0.229
INTS3 (UniProt Q68E01) -0.006
IRAK4 (UniProt Q9NWZ3) -0.003
IFRD1 (UniProt O00458) -0.111
ISYNA1 (UniProt Q9NPH2) 0.016
IER3IP1 (UniProt Q9Y5U9) 0.158
IPO7 (UniProt O95373) -0.007
INPPL1 (UniProt O15357) 0.065
ITFG2 (UniProt Q969R8) -0.001
ILRUN (UniProt Q9H6K1) -0.026
IMMT isoform 2 (UniProt Q16891) 0.325
ISCA2 (UniProt Q86U28) -0.035
ITM2B (UniProt Q9Y287) -0.482
IRF2BP2 (UniProt Q7Z5L9) -0.034
INTS2 (UniProt Q9H0H0) 0.097
